For some of these results: Negatives hold for the conditions tested. The exact form of at least one protein or probe is not confirmed. For some of these results: The comparison behind a weaker result is the experiment's own reference, which may not be listed here.
What was measured:
[1] = biological target: BtAraR (apo) (UniProt Q8AAV8); experiment: EMSA; conditions: EMSA: 20 mM Tris-HCl pH 8.0, 150 mM KCl, 5 mM MgCl2, 1 mM DTT, 0.05% NP-40, 2.5% glycerol, 37 C, 30 min, DNA 0.2 nM (0.16 nM in Fig S4), protein 0.25-1 uM, recombinant protein, residues 1-225, protein details: N-terminal His6 removed by TEV, leaves SNA, label: 5'-biotin on one strand
[2] = biological target: BtAraR (apo) (UniProt Q8AAV8); experiment: crystal structure; conditions: apo protein dimer with one duplex, 3.05 A; recombinant protein; residues 1-225; protein details: N-terminal His6 removed by TEV, leaves SNA

“CCCCCACTATAATTAACCAATTAATCTAATCCAACGGTTACATAGGAGGTACTAATATAACCCCC (double strand) [negative control, shuffled BT0356]”: no binding ([1]; no effector, up to 1 uM protein).
“CCCCCATATAAGAGTGTATTTGATACACCAAACAAAAGTGTTACTTTTACACCCAAAATACCCCC (double strand) [BT0356 (araM) promoter 65-bp]”: binds more weakly ([1]; 0.01 mM L-arabinose, 1 uM protein); no binding ([1]; 0.5 mM L-arabinose, 1 uM protein); binds more weakly ([1]; 0.5-2 mM D-xylose, 1 uM protein, partial impairment). “CCCCCATATAAGAGTGTATTTGATACACCAAACAAAAGTGTTACTTTTACACCCAAAATACCCCC (double strand) [BT0356 (araM) promoter 65-bp]”: binds ([1]; no effector, shift at 1.0 uM, two shifted bands).
“CCCCCTACTCAAAGTGTAAAAAAGACACTTATATAACCCCC (double strand) [BT0365 promoter 41-bp]”: binds ([1]; no effector, shift at 1.0 uM, one shifted band).
“GCAAAAGTGTTACTTTTACACCCATGC (double strand) [27-bp araM operator (crystal)]”: binds [2].
